Data: PubChem BioAssay AID504647 (National Center for Advancing Translational Sciences (NCATS), 2011)
The other results are listed elsewhere or left out. Shown are side measurements of this screen, not its main read-out; they come without a call.

assay: Assay for Inhibitors of Influenza NS1 Protein Function: Influenza virus replication assay in MDCK cells infected with virus A/PR/8/34; conditions: MDCK infected influenza A/PR/8/34, virus titer TCID50; measured here: MDCK cell viability; at 5 µM; stronger effect = higher value
Source text: NIH Chemical Genomics Center [NCGC]
NIH Molecular Libraries Probe Centers Network [MLPCN]
Assay Submitter (PI): Daniel Engel
Influenza is a world-wide public health problem and emerging forms of the virus have the potential to cause a pandemic of equal or greater magnitude to the outbreaks recorded in 1918, 1957 or 1968. Vaccine development is proceeding and there also exist two classes of anti-influenza compounds. However these therapeutic modalities are neither fully effective nor widely enough available to fulfill global needs. In addition their potential usefulness against newly emergent strains is not known. Efforts are needed to develop novel agents against influenza virus, including broad-spectrum agents. Identification of small molecules that inhibit NS1 function either directly or by interfering with specific cellular pathways may be a key to increasing our defense against the virus.
We have miniaturized and optimized a cell based assay in which NS1 from influenza A is expressed in the budding yeast S. cerevisiae. NS1 is a multi-functional protein that counters the host innate immune response and facilitates viral versus cellular gene expression. Expression of NS1 causes a pronounced slow growth phenotype in yeast due to its intrinsic molecular activities. Small molecules that suppress the slow growth phenotype can be identified by a straightforward growth recovery assay using optical density (OD) as the measurement. The same yeast strain not expressing NS1 was used as positive control in the yeast growth recovery assay. The present experiment attempted to confirm the activity of compounds observed in the primary screen.
This assay confirms the activity of compounds from the primary screen by measuring their affect on viral replication.
Protocol details are given in Basu et al. J. Vir. 83(4):1881-1891 2009. […] All media and sera were from Invitrogen. […] Confluent cell monolayers were infected at a multiplicity of infection (MOI) of 0.1 for 48 h in the presence or absence of 5uM compound. Compounds were added at the beginning of infection and were present throughout the infection. After 48 h virus titers were determined by standard TCID50 analysis.

Structure (SMILES)	viability [%]
CCc1cc(=O)oc2cc(C)cc(OCC(=O)N[C@@H](CSCc3ccccc3)C(=O)O)c12	97.8
CC(=O)c1ccc(N2CCN(C(=O)c3cc(-c4ccc5c(c4)OCO5)nc4ccccc34)CC2)cc1	104
Cc1ccc(N(CC(=O)Nc2cccc(C)c2)S(=O)(=O)c2cccc3nonc23)cc1	101
CC12CCC(C(=O)N(CSC(=S)N/N=C\c3ccccc3Cl)C1=O)C2(C)C (stereo not given)	94.5
COC(=O)c1c(NC(=S)Nc2cc(OC)c(Cl)cc2OC)sc2c1CCCCC2	102
N/N=c1\sc2ccccc2n1-c1ccccc1	93.4
CCc1ccc(NC(=O)CNC(=O)c2cn(-c3ccccc3OC)c(=O)c3ccccc23)cc1	98.9
O=C(COC(=O)c1ccc[nH]c1=O)Nc1ccc(S(=O)(=O)N2CCCC2)cc1	105
O=C(NCc1cc(C(F)(F)F)cc(C(F)(F)F)c1)C12CN(Cc3ccccc3)CC1C(c1cccc([N+](=O)[O-])c1)=NO2 (stereo not given)	94.6
Cc1ccc(/C=C/C(=O)Oc2ccc(C#N)cc2)o1	101
C[C@@H](C(=O)Nc1ccc2ccccc2c1)[C@H]1C[C@]1(C)[C@H](NC(=O)c1cccnc1)c1ccccc1	98.4
CCOC(=O)C1CCN(C(=O)CS(=O)Cc2nc(-c3ccc(C)cc3)oc2C)CC1 (stereo not given)	103
COc1ccc(C2/C=C\CN(S(=O)(=O)c3ccc4ccccc4c3)CC(=O)N2Cc2ccc(F)cc2)cc1 (stereo not given)	96.9
CC1CCC2(CC1)NC(=O)N(Cc1nc(-c3ccccc3)no1)C2=O (stereo not given)	99.2
COc1ccc(-n2c(SCC(=O)N3CCCCC3)nc(O)cc2=O)cc1	96.4
CCOC(=O)c1ccc(NC(=O)CSc2nnc(CCc3ccc(C)o3)n2-c2ccccc2)cc1	93
COc1ccc(N2C(=O)N3[C@H](c4cccc(C)c4)[C@@H]4C(=O)N(Cc5ccccc5)C(=O)[C@@H]4[C@]3(Cc3ccccc3)C2=O)cc1	102
O=C(CSc1nc2ccccc2c(=O)n1-c1ccccc1Cl)Nc1cccc(S(=O)(=O)N2CCOCC2)c1	90.5
CCCC1(c2ccccc2)NC(=O)N(CC(=O)c2[nH]c(C)c(C(=O)OCC)c2C)C1=O (stereo not given)	98.8
O=C(NCc1cccs1)C1CCCN1C(=O)Nc1ccccc1Cl (stereo not given)	99.7

Structure (SMILES)	viability [%]
Cc1[nH]n(-c2cccc3ccccc23)c(=O)c1/C=N/c1sc2c(c1C#N)CCC2	97.3
Cc1ccc(-c2nnc(NCc3nc4ccccc4[nH]3)c3ccccc23)cc1S(=O)(=O)N(C)C	103
CC(C)CC(=O)NC(NC(=S)Nc1sc2c(c1C#N)CCCC2)C(Cl)(Cl)Cl (stereo not given)	98.3
Cc1cccc(OCc2nnc(SCC(=O)N3c4ccccc4CCc4ccccc43)o2)c1	103
COc1cc(NC(=O)COC(=O)c2cc(S(=O)(=O)N3CCCCC3)ccc2Cl)c(C)cc1[N+](=O)[O-]	101
COc1cc(NC(=O)CSc2nc3ccccc3n2-c2ccccc2)c(C)cc1[N+](=O)[O-]	103
O=C(C[n+]1cccc(C(=O)Nc2ccccc2)c1)c1ccc([N+](=O)[O-])cc1	103
CCc1nnc(NS(=O)(=O)c2ccc(NC(=O)c3cc(Cl)ccc3[N+](=O)[O-])cc2)s1	98.5
Cc1ccc(/C=N/NC(=O)CN(Cc2ccccc2)S(=O)(=O)c2ccc3c(c2)OCCO3)cc1	105
CCOc1cc(-c2c(C#N)c(=O)[nH]c3c2c(C)nn3-c2ccc(F)cc2)ccc1O	85.4
O=C(CSc1nc(O)c(Cc2ccccc2)c(=O)[nH]1)N1CCOCC1	103
CC1CC(C)CN(S(=O)(=O)N2CCCC(C(=O)NCc3ccccc3Cl)C2)C1 (stereo not given)	106
O=C(Nc1ccc(Oc2ccc(NC(=O)c3ccco3)c(NC(=O)c3ccco3)c2)cc1)c1ccco1	103
COc1ccccc1-n1c(SCC(=O)NC(C)(C)C)nc(O)cc1=O	94.8
Cc1cc(OCC(=O)NC(Cc2ccc(Cl)cc2)C(=O)O)c2c(C)c(C)c(=O)oc2c1 (stereo not given)	100
Cc1ccc(C)c(N2CCN(C(=O)C3CCN(S(=O)(=O)c4cccc5nsnc45)CC3)CC2)c1	103
COc1cc(/C=N/n2c(-c3ccc4c(c3)NC(=O)CO4)csc2=Nc2cccc(C)c2)ccc1O	99.2
COc1ccc(-n2c(Cc3cccn3C)nnc2SCC(=O)Nc2ccc(Cl)cc2)cc1	104
Cc1ccc(C(=O)N/N=C/c2cc(C)n(-c3ccc(Br)cc3)c2C)cc1[N+](=O)[O-]	104
NC(=O)[C@H]1CC2(CC(c3cccc(NC(=O)CC(c4ccccc4)c4ccccc4)c3)=NO2)CN1C(=O)CC(c1ccccc1)c1ccccc1 (stereo not given in full)	95.7

Ten entries already listed, arranged by length of the SMILES, ascending.
Structure (SMILES)	viability [%]
O=C(CSc1nc(O)c(Cc2ccccc2)c(=O)[nH]1)N1CCOCC1	103
Cc1cccc(OCc2nnc(SCC(=O)N3c4ccccc4CCc4ccccc43)o2)c1	103
COc1ccc(-n2c(Cc3cccn3C)nnc2SCC(=O)Nc2ccc(Cl)cc2)cc1	104
Cc1[nH]n(-c2cccc3ccccc23)c(=O)c1/C=N/c1sc2c(c1C#N)CCC2	97.3
CCOc1cc(-c2c(C#N)c(=O)[nH]c3c2c(C)nn3-c2ccc(F)cc2)ccc1O	85.4
COc1cc(NC(=O)CSc2nc3ccccc3n2-c2ccccc2)c(C)cc1[N+](=O)[O-]	103
Cc1ccc(/C=N/NC(=O)CN(Cc2ccccc2)S(=O)(=O)c2ccc3c(c2)OCCO3)cc1	105
COc1cc(/C=N/n2c(-c3ccc4c(c3)NC(=O)CO4)csc2=Nc2cccc(C)c2)ccc1O	99.2
O=C(Nc1ccc(Oc2ccc(NC(=O)c3ccco3)c(NC(=O)c3ccco3)c2)cc1)c1ccco1	103
COc1cc(NC(=O)COC(=O)c2cc(S(=O)(=O)N3CCCCC3)ccc2Cl)c(C)cc1[N+](=O)[O-]	101
